# Data from the supplement of paper PMC8728848.
# Some of the results follow.
# B1: Awp1 (Candida glabrata) (protein)
# chain: MSLITIFAFLIKATLVLSLDILTPTTLTGDQTFNEDVSVVSSLTLNDGSQYLFNNLLQIAPSSASVTANALAAVSVFTFSLPPSSSLSNSGTLIISNSNTGPSTEQHIVITPNVMANTGTITLSLAHTNTDSSSTLIIDPVTFYNTGTINYESIGSETNDPSLTGNILSIGSSGRTLQNLGTINLNAANSYYLLGTITENSGSINVQKGFLYVNALDFIGNTINLSTTTALAFISPVSQVVRVRGVFFGNIIASVGSSGTFSYNTQTGILTVTTNGVYSYDIGCGYNPALMSGQQETLSFQGNPYDTFLVLVNQPIPSDLTCAAVSSSITPSSSVEPSSSVVPSSSVEPSSSVEPSSSVEPSSSVEPSSSVEPSSSVEPSSSVEPSSSVEPSSSVEPSSSVEPSSSVEPSSSVEPSSSVEPSSSVEPSSSVEPSSSVEPSSSVEPSSSVEPSSSVEPSSLIVPSSSVEPSSSVLPSSSVVPSSSVEPSTPPIPSSSVEPSSSVVPSSPAVPSSSVEPSTPPIPSSSVVSASVFDTSSTLPSSPSVPPSSVSPSTISTPSSSAAPSSFCPTCVSSGTPPAPSSSAIVPTSSAGGGNGGDNREPGAAGQPGAAGQPGAAGQPGAAGQPGAAGQPGAAGQPGAAGQPGAAGQPGAAGQPGAAGQPGAGFGVGSEQPTPGAGAGSGSADGNQSGTGSGTGNGQQGSGQAGSGQAGSGQEGSGQAGSGQAGSGQAGSGQAGSGQAGLDNTASGQSEGGQASAMDGDQSGRDGQSNSGSLLQPNAQQGTGSGTGSDIGADQASGESPGQIGDAQPGSGTDQSSGRHSLAAEARTSQSHSLAADARTRSTTRQTSVIAPDTAPGTASGTAPGTAPGTAVVTTFHGCGTVNHKGMINILLALALLVLL
# What was measured:
# Test in all cases: glycan array binding signal (z-score within array); higher = stronger binding
# Details in all cases: glycan notation: IUPAC condensed, linker removed
# [1] = target: GlcNAc(b1-3)Gal(b1-4)GlcNAc(b1-3)Gal(b1-4)GlcNAc(b1-3)GalNAc
# In short: (§1)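 Glycan array binding is given as a within-array Z-score, which can be read as non-binding when negative. The arrays, 3228 of them, came from the Consortium for Functional Glycomics database and were retained only where the protein sequence was available. Z-scores were averaged across arrays of the same protein sequence at different concentrations or buffers and across linkers.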
# [2] = target: GlcNAc(b1-3)Gal(b1-4)GlcNAc(b1-3)GalNAc
# In short: as §1
# [3] = target: GlcNAc(b1-3)Gal(b1-4)GlcNAc(b1-3)[GlcNAc(b1-3)Gal(b1-4)GlcNAc(b1-3)]GalNAc
# In short: as §1
# [4] = target: GlcNAc(b1-3)Gal(b1-4)GlcNAc(b1-6)[Gal(b1-3)]GalNAc
# In short: as §1
# [5] = target: GlcNAc(b1-3)Gal(b1-4)GlcNAc(b1-6)[GlcNAc(b1-3)Gal(b1-3)]GalNAc
# In short: as §1
# [6] = target: GlcNAc(b1-3)Gal(b1-4)GlcNAc(b1-6)[GlcNAc(b1-3)]Gal(b1-4)GlcNAc
# In short: as §1
# GlcNAc(b1-3)GalNAc = target: GlcNAc(b1-3)GalNAc
# In short: as §1
# GlcNAc(b1-3)Man = target: GlcNAc(b1-3)Man
# In short: as §1
# [7] = target: GlcNAc(b1-3)[GlcNAc(b1-4)][GlcNAc(b1-6)]GlcNAc
# In short: as §1
# [8] = target: GlcNAc(b1-3)[GlcNAc(b1-6)]Gal(b1-4)GlcNAc
# In short: as §1
# [9] = target: GlcNAc(b1-3)[GlcNAc(b1-6)]GalNAc
# In short: as §1
# [10] = target: GlcNAc(b1-4)Gal(b1-4)GlcNAc
# In short: as §1
# GlcNAc(b1-4)GlcNAc = target: GlcNAc(b1-4)GlcNAc
# In short: as §1
# [11] = target: GlcNAc(b1-4)GlcNAc(b1-4)GlcNAc
# In short: as §1
# [12] = target: GlcNAc(b1-4)GlcNAc(b1-4)GlcNAc(b1-4)GlcNAc(b1-4)GlcNAc
# In short: as §1
# [13] = target: GlcNAc(b1-4)GlcNAc(b1-4)GlcNAc(b1-4)GlcNAc(b1-4)GlcNAc(b1-4)GlcNAc
# In short: as §1
# [14] = target: GlcNAc(b1-4)[GlcNAc(b1-6)]GalNAc
# In short: as §1
# [15] = target: GlcNAc(b1-6)Gal(b1-4)GlcNAc
# In short: as §1
# GlcNAc(b1-6)GalNAc = target: GlcNAc(b1-6)GalNAc
# In short: as §1
# [16] = target: GlcNAc6S(b1-3)Gal(b1-4)GlcNAc
# In short: as §1
# Kdn(a2-3)Gal(b1-3)GalNAc = target: Kdn(a2-3)Gal(b1-3)GalNAc
# In short: as §1
# Kdn(a2-3)Gal(b1-3)GlcNAc = target: Kdn(a2-3)Gal(b1-3)GlcNAc
# In short: as §1
# Kdn(a2-3)Gal(b1-4)Glc = target: Kdn(a2-3)Gal(b1-4)Glc
# In short: as §1
# Kdn(a2-3)Gal(b1-4)GlcNAc = target: Kdn(a2-3)Gal(b1-4)GlcNAc
# In short: as §1
# [17] = target: Kdn(a2-3)Gal(b1-4)[Fuc(a1-3)]GlcNAc
# In short: as §1
# Kdn(a2-6)Gal(b1-4)GlcNAc = target: Kdn(a2-6)Gal(b1-4)GlcNAc
# In short: as §1
# [18] = target: Man(a1-2)Man(a1-2)Man(a1-3)Man
# In short: as §1
# [19] = target: Man(a1-2)Man(a1-2)Man(a1-6)[Man(a1-3)]Man
# In short: as §1
# Man(a1-2)Man(a1-3)Man = target: Man(a1-2)Man(a1-3)Man
# In short: as §1
# [20] = target: Man(a1-2)Man(a1-3)[Man(a1-2)Man(a1-6)]Man
# In short: as §1
binder,measurement,setting,value
B1,glycan array binding signal (z-score),[1],0.062
same,glycan array binding signal (z-score),[2],0.885
same,glycan array binding signal (z-score),[3],-0.258
same,glycan array binding signal (z-score),[4],-0.252
same,glycan array binding signal (z-score),[5],0.185
same,glycan array binding signal (z-score),[6],-1.44
same,glycan array binding signal (z-score),GlcNAc(b1-3)GalNAc,0.149
same,glycan array binding signal (z-score),GlcNAc(b1-3)Man,1.12
same,glycan array binding signal (z-score),[7],-0.877
same,glycan array binding signal (z-score),[8],-0.01
same,glycan array binding signal (z-score),[9],-0.612
same,glycan array binding signal (z-score),[10],1.07
same,glycan array binding signal (z-score),GlcNAc(b1-4)GlcNAc,-0.375
same,glycan array binding signal (z-score),[11],0.366
same,glycan array binding signal (z-score),[12],0.942
same,glycan array binding signal (z-score),[13],-0.639
same,glycan array binding signal (z-score),[14],-0.136
same,glycan array binding signal (z-score),[15],-0.45
same,glycan array binding signal (z-score),GlcNAc(b1-6)GalNAc,0.087
same,glycan array binding signal (z-score),[16],1.15
same,glycan array binding signal (z-score),Kdn(a2-3)Gal(b1-3)GalNAc,-1.24
same,glycan array binding signal (z-score),Kdn(a2-3)Gal(b1-3)GlcNAc,-0.653
same,glycan array binding signal (z-score),Kdn(a2-3)Gal(b1-4)Glc,0.597
same,glycan array binding signal (z-score),Kdn(a2-3)Gal(b1-4)GlcNAc,-0.054
same,glycan array binding signal (z-score),[17],-0.924
same,glycan array binding signal (z-score),Kdn(a2-6)Gal(b1-4)GlcNAc,0.866
same,glycan array binding signal (z-score),[18],-0.346
same,glycan array binding signal (z-score),[19],-1.38
same,glycan array binding signal (z-score),Man(a1-2)Man(a1-3)Man,-0.809
same,glycan array binding signal (z-score),[20],-0.34

# Two entries drawn at random from those above, as already listed:
binder,measurement,setting,value
B1,glycan array binding signal (z-score),[8],-0.01
same,glycan array binding signal (z-score),GlcNAc(b1-6)GalNAc,0.087
